These are yes or no findings as the source states them, for the method shown. In cells and extracts the contact can be indirect. Binding can be weak; no strength is given.
Molecular target: Cherry-tagged Citron Kinase (CITK), full length (UniProt P49025)
Assay: co-IP; RFP-Trap affinity resin on lysates of 293T cells transfected with Cherry-tagged CITK or empty vector; mild lysis buffer (150 mM NaCl, 1 mM MgCl2, 50 mM Tris pH 7, 1% NP40, 5% glycerol); blots for RFP, HDAC6 and CYLD

Chains of the proteins cited; added tags and fusions are not shown. Lines headed by an entry give the natural chain unless they say otherwise; changes in a name come on top.
UniProt P49025: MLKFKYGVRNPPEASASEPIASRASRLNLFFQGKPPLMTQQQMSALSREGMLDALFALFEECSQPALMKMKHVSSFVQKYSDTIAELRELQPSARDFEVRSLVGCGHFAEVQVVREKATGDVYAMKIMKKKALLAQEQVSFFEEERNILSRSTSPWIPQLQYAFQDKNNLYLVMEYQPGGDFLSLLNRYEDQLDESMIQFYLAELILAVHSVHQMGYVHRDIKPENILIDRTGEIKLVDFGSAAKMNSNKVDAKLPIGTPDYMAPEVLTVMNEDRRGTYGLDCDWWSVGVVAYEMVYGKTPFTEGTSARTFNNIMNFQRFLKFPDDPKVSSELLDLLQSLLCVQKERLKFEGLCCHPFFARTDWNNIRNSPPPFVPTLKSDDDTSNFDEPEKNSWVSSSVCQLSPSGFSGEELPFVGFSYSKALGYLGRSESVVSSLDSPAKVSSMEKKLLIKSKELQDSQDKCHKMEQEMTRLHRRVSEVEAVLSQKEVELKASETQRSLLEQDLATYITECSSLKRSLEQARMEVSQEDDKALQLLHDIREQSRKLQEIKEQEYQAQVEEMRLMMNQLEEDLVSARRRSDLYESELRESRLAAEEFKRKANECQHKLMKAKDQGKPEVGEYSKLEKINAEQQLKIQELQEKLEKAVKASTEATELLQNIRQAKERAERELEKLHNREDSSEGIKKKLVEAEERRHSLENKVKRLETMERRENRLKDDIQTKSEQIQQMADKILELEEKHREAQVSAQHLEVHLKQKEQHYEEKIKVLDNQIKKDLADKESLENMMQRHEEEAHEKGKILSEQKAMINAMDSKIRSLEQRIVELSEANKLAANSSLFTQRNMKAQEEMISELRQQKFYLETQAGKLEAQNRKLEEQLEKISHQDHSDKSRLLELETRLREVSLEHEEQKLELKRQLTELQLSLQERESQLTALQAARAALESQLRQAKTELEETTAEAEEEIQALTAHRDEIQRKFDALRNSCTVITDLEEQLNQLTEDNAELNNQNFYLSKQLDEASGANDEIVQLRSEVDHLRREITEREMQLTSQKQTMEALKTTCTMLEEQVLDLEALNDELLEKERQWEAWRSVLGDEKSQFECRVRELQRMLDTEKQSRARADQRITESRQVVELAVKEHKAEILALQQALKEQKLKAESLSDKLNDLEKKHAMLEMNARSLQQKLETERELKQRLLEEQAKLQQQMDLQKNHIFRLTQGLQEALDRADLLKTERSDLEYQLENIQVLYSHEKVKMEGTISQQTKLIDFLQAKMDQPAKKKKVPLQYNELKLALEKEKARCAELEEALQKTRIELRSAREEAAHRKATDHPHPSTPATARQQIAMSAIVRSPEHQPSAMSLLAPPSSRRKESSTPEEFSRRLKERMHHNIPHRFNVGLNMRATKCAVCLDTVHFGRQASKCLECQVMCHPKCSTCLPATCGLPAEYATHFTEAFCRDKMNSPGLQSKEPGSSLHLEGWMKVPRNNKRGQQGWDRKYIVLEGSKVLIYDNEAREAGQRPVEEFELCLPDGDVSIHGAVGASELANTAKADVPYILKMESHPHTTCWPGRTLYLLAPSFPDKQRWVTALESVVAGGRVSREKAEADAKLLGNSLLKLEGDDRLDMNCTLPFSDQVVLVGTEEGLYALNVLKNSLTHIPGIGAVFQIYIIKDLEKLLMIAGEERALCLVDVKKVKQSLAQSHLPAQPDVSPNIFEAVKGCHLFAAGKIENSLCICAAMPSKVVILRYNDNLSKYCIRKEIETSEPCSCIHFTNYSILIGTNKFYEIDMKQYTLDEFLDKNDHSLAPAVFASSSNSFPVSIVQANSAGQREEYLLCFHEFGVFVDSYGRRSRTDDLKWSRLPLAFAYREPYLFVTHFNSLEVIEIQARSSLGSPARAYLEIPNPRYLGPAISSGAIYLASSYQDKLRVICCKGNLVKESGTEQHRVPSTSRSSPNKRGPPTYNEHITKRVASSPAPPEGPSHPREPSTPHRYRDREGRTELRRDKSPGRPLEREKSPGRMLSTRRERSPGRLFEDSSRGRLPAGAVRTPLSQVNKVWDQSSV
UniProt Q9UBN7: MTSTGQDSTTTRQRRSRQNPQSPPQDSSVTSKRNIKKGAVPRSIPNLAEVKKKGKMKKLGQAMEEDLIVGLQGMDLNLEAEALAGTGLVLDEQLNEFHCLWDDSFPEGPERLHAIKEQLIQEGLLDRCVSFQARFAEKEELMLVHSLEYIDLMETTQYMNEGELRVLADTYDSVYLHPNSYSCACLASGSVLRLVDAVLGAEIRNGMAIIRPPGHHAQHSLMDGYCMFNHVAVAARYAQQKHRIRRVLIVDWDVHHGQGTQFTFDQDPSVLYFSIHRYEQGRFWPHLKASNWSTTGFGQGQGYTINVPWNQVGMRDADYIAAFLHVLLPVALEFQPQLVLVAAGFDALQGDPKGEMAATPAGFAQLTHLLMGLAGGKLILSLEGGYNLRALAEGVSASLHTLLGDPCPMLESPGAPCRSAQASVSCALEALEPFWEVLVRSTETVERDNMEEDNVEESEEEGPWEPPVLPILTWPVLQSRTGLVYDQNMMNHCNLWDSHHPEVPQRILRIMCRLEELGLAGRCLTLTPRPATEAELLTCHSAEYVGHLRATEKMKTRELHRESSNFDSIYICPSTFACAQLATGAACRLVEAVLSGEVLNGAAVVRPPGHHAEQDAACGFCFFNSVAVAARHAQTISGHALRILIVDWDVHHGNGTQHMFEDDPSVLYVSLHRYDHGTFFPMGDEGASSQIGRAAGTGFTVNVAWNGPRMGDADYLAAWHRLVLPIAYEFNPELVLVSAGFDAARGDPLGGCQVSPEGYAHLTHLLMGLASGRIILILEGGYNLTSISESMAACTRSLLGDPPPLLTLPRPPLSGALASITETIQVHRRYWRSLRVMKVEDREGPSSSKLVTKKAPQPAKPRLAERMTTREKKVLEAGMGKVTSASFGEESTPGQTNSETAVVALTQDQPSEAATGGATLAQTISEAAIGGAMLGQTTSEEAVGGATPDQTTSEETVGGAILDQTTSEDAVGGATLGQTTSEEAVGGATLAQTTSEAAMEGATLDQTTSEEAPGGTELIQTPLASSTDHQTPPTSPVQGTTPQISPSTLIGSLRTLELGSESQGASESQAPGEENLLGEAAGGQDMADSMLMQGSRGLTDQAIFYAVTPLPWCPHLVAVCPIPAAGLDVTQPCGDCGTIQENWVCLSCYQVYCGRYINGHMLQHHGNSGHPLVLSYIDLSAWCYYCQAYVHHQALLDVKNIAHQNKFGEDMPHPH

Q: How did the binding turn out when “histone deacetylase 6 (HDAC6), endogenous (from UniProt Q9UBN7 1-1215)” was run?
A: Its binding is “binds”.
